Test results as given in the supplement of paper PMC9233669.
Variants at the background level are over-represented here.

Assays:
biotinyl-Val-oxazolone = test: self-aminoacylation, catalytic enhancement (BVO) (fold over background); higher = more active; k-Seq, kA / k0A0; sequences stand for … in GGGAAUGGAUCCACAUCUACGAAUUC…UUCACUGCAGACUUGACGAAGCUG
Procedure, shortened: (§1)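 Mutagenized RNA pools (0.43 μM; 21-nt variable region) were treated with 2–1250 μM of each biotinyl-aminoacyl-oxazolone. Conditions were 50 μL HEPES/NaCl/KCl/MgCl2/CaCl2 buffer, 5% acetonitrile, pH 6.9–7.0, room temperature, 90 minutes. Catalytic enhancement, the median kA relative to the uncatalyzed rate, was derived from streptavidin capture, qPCR and Illumina sequencing.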

biotinyl-Phe-oxazolone = test: self-aminoacylation, catalytic enhancement (BFO) (fold over background); higher = more active; k-Seq, kA / k0A0; sequences stand for … in GGGAAUGGAUCCACAUCUACGAAUUC…UUCACUGCAGACUUGACGAAGCUG
Procedure, shortened: as §1

biotinyl-Leu-oxazolone = test: self-aminoacylation, catalytic enhancement (BLO) (fold over background); higher = more active; k-Seq, kA / k0A0; sequences stand for … in GGGAAUGGAUCCACAUCUACGAAUUC…UUCACUGCAGACUUGACGAAGCUG
Procedure, shortened: as §1

biotinyl-Trp-oxazolone = test: self-aminoacylation, catalytic enhancement (BWO) (fold over background); higher = more active; k-Seq, kA / k0A0; sequences stand for … in GGGAAUGGAUCCACAUCUACGAAUUC…UUCACUGCAGACUUGACGAAGCUG
Procedure, shortened: as §1

biotinyl-Ile-oxazolone = test: self-aminoacylation, catalytic enhancement (BIO) (fold over background); higher = more active; k-Seq, kA / k0A0; sequences stand for … in GGGAAUGGAUCCACAUCUACGAAUUC…UUCACUGCAGACUUGACGAAGCUG
Procedure, shortened: as §1

biotinyl-Met-oxazolone = test: self-aminoacylation, catalytic enhancement (BMO) (fold over background); higher = more active; k-Seq, kA / k0A0; sequences stand for … in GGGAAUGGAUCCACAUCUACGAAUUC…UUCACUGCAGACUUGACGAAGCUG
Procedure, shortened: as §1

Sequence	self-aminoacylation (biotinyl-Val-oxazolone)	self-aminoacylation (biotinyl-Phe-oxazolone)	self-aminoacylation (biotinyl-Leu-oxazolone)	self-aminoacylation (biotinyl-Trp-oxazolone)	self-aminoacylation (biotinyl-Ile-oxazolone)	self-aminoacylation (biotinyl-Met-oxazolone)
AAAUUUGCUAAUAGUCUCAAG [Fam3.1 aminoacylation ribozyme variant]	1.51	2.03	1.39	1.78	1.68	1.26
AACUUUACUAAUAGUCGCAAG [Fam3.1 aminoacylation ribozyme variant]	1.86	6.76	2.26	2.92	2.07	2.23
AACUUUGCUAAUAGUCGCAAU [Fam3.1 aminoacylation ribozyme variant]	2.51	6.33	3.35	2.77	2.94	2.79
AAGCUUGCUACUAGUCGCAAG [Fam3.1 aminoacylation ribozyme variant]	1.83	1.75	–	–	–	–
AAGUUUGCGAAUAUUCGCAAG [Fam3.1 aminoacylation ribozyme variant]	1.38	0.916	1.72	–	1.54	1.72
AAGUUUGCUAAGAGUCGCCAG [Fam3.1 aminoacylation ribozyme variant]	1.33	1.21	1.27	–	1.25	1.37
AAGUUUGCUAGUAGUCGCAAA [Fam3.1 aminoacylation ribozyme variant]	1.06	1.07	0.751	–	1.2	1.29
AUUACCCUGGUCAGCGAGCGA [Fam2.1 aminoacylation ribozyme variant]	–	1.88	–	1.94	1.99	–
AUUACGCUGCUCAUCGAGUGA [Fam2.1 aminoacylation ribozyme variant]	1.63	1.22	1.82	–	1.53	1.49
AUUCACCUAAGUCAUCGGGUA [Fam2.2 aminoacylation ribozyme variant]	–	1.4	–	–	–	–
AUUCACCUAGCUCAUCGGGGG [Fam2.2 aminoacylation ribozyme variant]	1.79	1.19	1.86	1.54	1.81	–
AUUCACCUAGGUCAUCGGCAG [Fam2.2 aminoacylation ribozyme variant]	1.33	0.706	–	1.32	1.23	1.61
AUUCACCUAGGUCAUCUGGCG [Fam2.2 aminoacylation ribozyme variant]	1.94	1.02	–	1.91	1.75	1.92
AUUCACCUGGGUCAUCGGGCG [Fam2.2 aminoacylation ribozyme variant]	–	1.82	–	–	–	–
AUUCAUCUAGCUCAUCGGGUG [Fam2.2 aminoacylation ribozyme variant]	1.73	1.31	1.99	–	1.91	–
AUUGCCCUCGUCAUCGAGUGA [Fam2.1 aminoacylation ribozyme variant]	2.08	–	3.58	3.9	2.21	3.34
AUUUACCUAGGUCAUCGGCUG [Fam2.2 aminoacylation ribozyme variant]	1.71	–	1.97	1.17	1.55	1.7
AUUUACCUAGGUCAUCGUGUG [Fam2.2 aminoacylation ribozyme variant]	0.953	–	1.18	0.691	0.874	0.995
AUUUCCAUGGUCAUCGAGUGA [Fam2.1 aminoacylation ribozyme variant]	5.09	–	9.67	12	5.22	9.56
AUUUCCCUGGUCAUUGAGUGA [Fam2.1 aminoacylation ribozyme variant]	4.4	–	8.38	10	4.47	8.36
CAACUUAAAACAAUCGGUCUG [Fam1A.1 aminoacylation ribozyme variant]	1.14	–	1.11	0.948	0.984	1.09
CCACAAUUCAAGUAAUCGGUC [Fam1B.1 aminoacylation ribozyme variant]	0.91	–	0.898	1.36	0.96	0.906
CCACACAUCAAUCAAUCGGUC [Fam1B.1 aminoacylation ribozyme variant]	0.922	–	0.682	1.4	0.842	0.777
CCACACUCCAGGCAAUCGGUC [Fam1B.1 aminoacylation ribozyme variant]	1.53	1.2	1.23	–	1.46	1.11
CCACACUGCAAGCAAUCGGGC [Fam1B.1 aminoacylation ribozyme variant]	–	0.591	1.67	–	1.94	1.56
CCACACUUCAAACAAUCGGGC [Fam1B.1 aminoacylation ribozyme variant]	1.81	1.23	1.72	–	1.87	1.48
CCACACUUCAAGCAACCGGGC [Fam1B.1 aminoacylation ribozyme variant]	3.18	–	3.43	4.79	2.77	2
CCACACUUCAAGCAAUCCCUC [Fam1B.1 aminoacylation ribozyme variant]	1.15	–	0.729	1.35	1.04	0.846

Sequence	self-aminoacylation (biotinyl-Val-oxazolone)	self-aminoacylation (biotinyl-Phe-oxazolone)	self-aminoacylation (biotinyl-Leu-oxazolone)	self-aminoacylation (biotinyl-Trp-oxazolone)	self-aminoacylation (biotinyl-Ile-oxazolone)	self-aminoacylation (biotinyl-Met-oxazolone)
CCACACUUCAAGCAAUCGGCG [Fam1B.1 aminoacylation ribozyme variant]	–	0.672	1.79	–	1.31	–
CCACACUUCAAGCAAUGGGCC [Fam1B.1 aminoacylation ribozyme variant]	–	0.858	1.71	1.01	1.86	1.83
CCACACUUCAAGCAUUCCGUC [Fam1B.1 aminoacylation ribozyme variant]	–	1.46	–	–	–	–
CCACACUUGAAGCAAUCGGCC [Fam1B.1 aminoacylation ribozyme variant]	–	0.992	–	–	1.83	1.86
CCACACUUUAAGCAAUCGGGC [Fam1B.1 aminoacylation ribozyme variant]	1.34	–	1.65	1.01	1.61	1.63
CCACAUUUCAAGAAAUCGGUC [Fam1B.1 aminoacylation ribozyme variant]	1.05	–	1.05	1.83	1.12	1.26
CCACUGCAAACAAUCGGUCUG [Fam1A.1 aminoacylation ribozyme variant]	1.39	–	1.06	1.27	1.01	1.16
CCAGACUUCAAGCAACCGGUC [Fam1B.1 aminoacylation ribozyme variant]	1.36	–	1.02	2	1.47	0.698
CCAGACUUCGAGCAAUCGGUC [Fam1B.1 aminoacylation ribozyme variant]	–	1.27	1.59	1.63	1.67	1.34
CGACUGCAAACAAUCGGUCUG [Fam1A.1 aminoacylation ribozyme variant]	1.39	–	1.7	1.81	1.73	1.26
CGACUUCAAACAACCGGUCUG [Fam1A.1 aminoacylation ribozyme variant]	1.18	1.54	1.22	–	1.11	0.722
CGGCACUUCAAGCAAUCGGUC [Fam1B.1 aminoacylation ribozyme variant]	1.61	–	1.87	20.1	1.4	1.5
CUACUGCAAACACUCGGUCUG [Fam1A.1 aminoacylation ribozyme variant]	1.43	–	1.49	1.55	1.29	1.64
CUACUUCAAAAACUCGGUCUG [Fam1A.1 aminoacylation ribozyme variant]	0.937	–	1.15	1.01	1.02	0.841
CUACUUCAAACAAUCCGUCGG [Fam1A.1 aminoacylation ribozyme variant]	0.98	–	0.901	0.636	0.947	0.867
CUACUUCAAACUACCGGUCUG [Fam1A.1 aminoacylation ribozyme variant]	0.832	–	0.868	0.846	1.1	0.809
CUACUUCAAAGAAUCGGUCUC [Fam1A.1 aminoacylation ribozyme variant]	0.789	–	0.874	3.26	0.811	0.787
CUAGUUCAAACAAUCGGUCCG [Fam1A.1 aminoacylation ribozyme variant]	0.649	–	0.745	0.582	0.787	0.742
CUAGUUCAGACAAUCGGUCUG [Fam1A.1 aminoacylation ribozyme variant]	1.09	–	1.14	0.815	0.986	1.1
CUCCUUCAAACAGUCGGUCUG [Fam1A.1 aminoacylation ribozyme variant]	1.26	–	0.959	1.31	0.941	1.24
CUUUCCCUGGUCAUCGAGUGA [Fam2.1 aminoacylation ribozyme variant]	5.04	–	8.95	10.6	4.62	8.78
GAGUUUGCUAAUAGUAGCAAG [Fam3.1 aminoacylation ribozyme variant]	1.28	–	1.03	1.23	1.53	1.25
GAGUUUGCUGAUAGUCGCAAG [Fam3.1 aminoacylation ribozyme variant]	1.5	–	1.19	1.95	1.68	1.31
GUUACCCUGGUCAUCGAUUGA [Fam2.1 aminoacylation ribozyme variant]	1.24	–	1.6	0.875	1.38	1.48
GUUCACCUAGGUCAUCGGAUG [Fam2.2 aminoacylation ribozyme variant]	0.979	–	0.728	0.5	0.815	0.701
UAGUUUGCUCAUAGUCGCAAG [Fam3.1 aminoacylation ribozyme variant]	1.28	–	1.69	1.57	1.75	1.51
UUACUUCGAACAAUCGGUCUG [Fam1A.1 aminoacylation ribozyme variant]	1.1	–	1.28	1.56	1.29	1.24
